In publication PMC4625211, “Putative Breast Cancer Driver Mutations in TBX3 Cause Impaired Transcriptional Repression”:
For some assays here: The comparison behind a weaker result is the experiment's own reference, which may not be listed here. For some assays here: Tags and fusion partners may be left off the protein sequences shown. For some assays here: Construct, isoform or probe ends are uncertain for at least one entry. For some assays here: A negative result means that nothing was seen under these conditions.

Experiments:
[1] = target: T1, GST-TBX3(1-342) H187Y (human) (UniProt O15119); experiment: EMSA; details: faint, obvious only when overexposed; 20 mM HEPES (pH not given), 100 mM KCl, 1 mM DTT, 0.25 mM EDTA, 0.01% NP-40, 1 mM MgCl2, 8% glycerol, 100 ug/ml BSA, 1 mg/ml poly(dI-dC), 15 C, 1 h; 6% gel, 1x TBE; recombinant protein; residues 1-342; protein details: N-terminal GST (pGEX-2TK); label: 5' digoxigenin
T1 sequence (looked up): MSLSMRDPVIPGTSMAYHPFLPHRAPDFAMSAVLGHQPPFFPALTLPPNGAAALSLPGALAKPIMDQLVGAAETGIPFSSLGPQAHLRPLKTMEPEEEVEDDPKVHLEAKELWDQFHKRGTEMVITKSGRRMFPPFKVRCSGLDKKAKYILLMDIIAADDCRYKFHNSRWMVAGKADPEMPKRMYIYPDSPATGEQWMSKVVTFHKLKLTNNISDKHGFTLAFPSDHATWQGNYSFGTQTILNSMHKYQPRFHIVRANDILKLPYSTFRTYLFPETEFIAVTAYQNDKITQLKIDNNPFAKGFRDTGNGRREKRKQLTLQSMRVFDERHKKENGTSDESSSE

[2] = target: GST-TBX3 Y163fs2* (human) (UniProt O15119); experiment: EMSA; details: 20 mM HEPES (pH not given), 100 mM KCl, 1 mM DTT, 0.25 mM EDTA, 0.01% NP-40, 1 mM MgCl2, 8% glycerol, 100 ug/ml BSA, 1 mg/ml poly(dI-dC), 15 C, 1 h; 6% gel, 1x TBE; recombinant protein; residues 1-162; protein details: N-terminal GST (pGEX-2TK); label: 5' digoxigenin

“AATTTCACACCTAGGTGTGAAATT (double strand)”: binds more weakly [1]; no binding [2].
